# This is one part of the list. Further columns of the screen follow, without active or inactive calls. The list favours compounds with an active or inconclusive main result. The note in brackets gives the kind of curve behind each potency; many fits are weak.
# Experiment: qHTS Assay for Modulators of Lamin A Splicing
# Conditions: HeLa LMNA splicing GFP/RFP minigene ratio, 48 h
# In short: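 Read-out is the ratio of GFP to DsRed2 object intensity, acquired by 488 nm laser-scanning cytometry on HeLa lamin A-EGFP minigene reporter cells. Compound incubation 48 hrs at 37 °C in Opti-MEM with 2% FBS; DMSO 0.5% final.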
# [1] = measured here: GFP splicing reporter channel
# [2] = measured here: RFP viability control channel
SMILES,AC50 [1],AC50 [2]
COc1ccc(/C=N/OCC(=O)NC(c2ccccc2)c2ccccc2)c(OC)c1,"10 µM [rising, partial curve]","14.1 µM [rising, single point]"
COc1ccc(-c2csc(NC(=O)c3ccc(OCC(=O)N4CCOCC4)c(OC)c3)n2)cc1,,"14.1 µM [rising, single point]"
O=C(COc1ccccc1Cl)N1CCN(c2ccc([N+](=O)[O-])c(N3CCOCC3)c2)CC1,,"8.91 µM [rising, partial curve, poor fit]"
Cc1ccc(SCC(=O)Nc2ccc3oc(-c4ccc(F)cc4)nc3c2)cc1,"14.1 µM [falling, partial curve, poor fit]",
N#Cc1cc(C(=O)c2cc(F)ccc2O)cn(-c2nccs2)c1=O,,"28.2 µM [rising, partial curve]"
O=C(Nc1cccnc1)c1cccs1,,"2.24 µM [rising, full curve]"
CCOc1ccc(CNC(=O)CCc2c(C)nn(-c3ccc(N4CCOCC4)nn3)c2C)cc1,"2.24 µM [rising, partial curve, poor fit]",
O=c1c2ccccc2c(/C=N/c2ncn[nH]2)c(O)n1Cc1ccccc1,"20 µM [rising, partial curve, poor fit]","15.8 µM [rising, partial curve]"
c1ccc2oc(-c3csc(NCC4CCCO4)n3)cc2c1 (stereo not given),,"0.112 µM [rising, partial curve, poor fit]"
Cc1cccc(NCc2ccc(O)c3ncccc23)c1C,"10 µM [falling, partial curve]","15.8 µM [falling, partial curve]"
CC(C)NC(=O)Cn1c(=O)nc(-c2ccccc2)c2ccccc21,"5.62 µM [rising, single point]",
Cc1ccc(C(=O)O/N=C/c2c(N3CCOCC3)n(C)c3ccccc23)cc1,"14.1 µM [falling, partial curve]","7.94 µM [falling, partial curve]"
Cn1c(Cc2cccc3ccccc23)nnc1SCC(=O)N1CCN(c2cccc(Cl)c2)CC1,,"11.2 µM [rising, partial curve]"
N#C/C(=N\O)c1nc(-c2ccccc2)cs1,,"35.5 µM [rising, single point]"
COc1cccc(CNn2c(-c3cccc(C)c3)nc3ccccc3c2=O)c1,,"35.5 µM [rising, single point]"
Cc1nn(C)cc1C1C(C#N)=C(N)N(c2ccc(F)c([N+](=O)[O-])c2)C2=C1C(=O)CCC2 (stereo not given),,"14.1 µM [rising, single point]"
CC(=C\c1ccco1)/C=C(\C#N)C(=O)NCCc1c[nH]c2ccccc12,,"35.5 µM [rising, single point]"
COc1ccc(-c2cc(C(=O)Nc3c(C(=O)c4ccc(C)c(F)c4)oc4ccccc34)no2)cc1,"12.6 µM [rising, partial curve]","0.398 µM [rising, full curve, poor fit]"

SMILES,AC50 [1],AC50 [2]
COc1ccc(OCC(=O)Nc2ccc3c(c2)N(C)C(=O)c2ccccc2S3)cc1,"3.16 µM [falling, partial curve, poor fit]","0.891 µM [falling, full curve, poor fit]"
O=C(NC(Cc1ccccc1)C(=O)Oc1ccc2c(C(F)(F)F)cc(=O)oc2c1)OCc1ccccc1 (stereo not given),"35.5 µM [rising, single point]","35.5 µM [rising, single point]"
COc1ccc(OC2C(=O)N(CCc3ccc(OC)c(OC)c3)C2c2ccc3c(c2)OCO3)cc1 (stereo not given),,"14.1 µM [rising, single point]"
Cc1cc(/C=C2\SC(=Nc3ccccc3)NC2=O)c(C)n1-c1ccc(S(N)(=O)=O)cc1,"6.31 µM [falling, partial curve]","8.91 µM [falling, partial curve]"
O=C1CCCC(=O)N1c1ccc(Oc2ccc(Cl)cc2)cc1,,"31.6 µM [rising, single point]"
COC(=O)CSc1nnc(-c2cccc(O)c2)o1,,"0.501 µM [falling, single point]"
FC(F)(F)c1cnc(NNC(=S)Nc2cccnc2)c(Cl)c1,"35.5 µM [rising, single point]",
CCc1ccccc1NC(=O)c1cc(S(=O)(=O)N2CCC(C)CC2)cn1C,,"0.00794 µM [falling, full curve, poor fit]"
CC1=C(C(=O)Nc2ccc(C)cc2C)C(c2cc(Br)ccc2F)n2ncc(C(=O)Nc3ccc(C)cc3)c2N1 (stereo not given),"11.2 µM [falling, partial curve]","10 µM [falling, partial curve]"
O=C1NC(=Nc2ccccc2)/C(=C/c2ccco2)S1,,"12.6 µM [rising, partial curve, poor fit]"
CC1CCCN(C(=O)Cc2cn(Cc3cccc(Cl)c3)c3ccccc23)C1 (stereo not given),,"12.6 µM [rising, single point]"
O=C(Nc1ccc(Cl)cc1C(=O)N1CCCC1)c1cccc([N+](=O)[O-])c1,,"4.47 µM [rising, partial curve]"
O=C(CN1CCOc2ccccc21)NCc1ccc(F)cc1,"35.5 µM [rising, single point]",
COc1ccc(-c2noc(CN(C)C3CCOCC3)n2)cc1,"35.5 µM [falling, partial curve, poor fit]",
COc1ccc(C(=O)N2CCN(CCc3ccccn3)CC2)cc1,"6.31 µM [rising, single point]",
C=CCn1c(-c2ccc(OC)cc2)csc1=Nc1c(C)n(C)n(-c2ccccc2)c1=O,,"25.1 µM [rising, single point]"
O=S(=O)(c1cccc2c(I)cccc12)N1CCCNCC1,"3.98 µM [falling, full curve, poor fit]",
Cc1ccc(-n2c(SCC(=O)Nc3ccc4c5c(cccc35)CC4)nc(O)cc2=O)cc1,"14.1 µM [rising, single point]",

# Source: PubChem BioAssay AID1487 (National Center for Advancing Translational Sciences (NCATS), 2009)
